The text below walks through data of patent US20190309072A1.

T1: human ITGa3 protein (human) (UniProt P26006)
T1 sequence (looked up): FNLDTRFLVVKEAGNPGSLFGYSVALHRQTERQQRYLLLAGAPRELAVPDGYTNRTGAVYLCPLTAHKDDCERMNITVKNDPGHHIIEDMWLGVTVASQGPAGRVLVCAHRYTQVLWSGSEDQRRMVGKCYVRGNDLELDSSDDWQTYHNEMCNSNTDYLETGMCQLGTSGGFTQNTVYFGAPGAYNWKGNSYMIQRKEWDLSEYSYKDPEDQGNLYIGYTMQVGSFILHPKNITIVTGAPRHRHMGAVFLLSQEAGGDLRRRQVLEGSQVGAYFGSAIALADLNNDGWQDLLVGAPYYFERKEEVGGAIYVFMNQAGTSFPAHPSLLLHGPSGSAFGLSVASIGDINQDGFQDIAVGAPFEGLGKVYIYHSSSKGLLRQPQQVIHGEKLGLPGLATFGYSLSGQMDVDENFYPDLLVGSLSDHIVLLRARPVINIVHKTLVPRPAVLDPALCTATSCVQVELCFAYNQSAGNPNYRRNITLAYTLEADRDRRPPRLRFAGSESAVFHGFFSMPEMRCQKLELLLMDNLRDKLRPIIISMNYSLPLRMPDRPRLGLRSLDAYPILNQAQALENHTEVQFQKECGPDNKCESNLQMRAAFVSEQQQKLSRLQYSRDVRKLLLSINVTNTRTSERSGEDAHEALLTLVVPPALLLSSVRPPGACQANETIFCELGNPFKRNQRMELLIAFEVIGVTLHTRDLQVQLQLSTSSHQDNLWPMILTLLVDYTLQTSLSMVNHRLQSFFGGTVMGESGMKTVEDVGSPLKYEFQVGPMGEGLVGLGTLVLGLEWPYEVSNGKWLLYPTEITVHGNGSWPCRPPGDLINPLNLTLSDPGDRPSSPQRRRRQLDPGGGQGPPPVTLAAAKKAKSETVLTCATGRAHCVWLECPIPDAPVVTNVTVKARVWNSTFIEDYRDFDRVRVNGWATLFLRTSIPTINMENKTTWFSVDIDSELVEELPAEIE

B1: Lc1/Hc1 (antibody, V domains shown)
VH: QVQLVQSGAEVKKPGSSVKVSCKASGYTFTEYIIHWVRQAPGQGLEWIGWFYPESGSVKYNETFKGRATLTADKSTSTAYMELSSLRSEDTAVYYCARHEERDYYGYYAMDYWGQGTTVTVSS
VL: DIQMTQSPSSLSASVGDRVTITCSASSSISSNYLHWYQQKPGKVPKLLIYRTSNLASGVPSRFSGSGSGTDYTLTISSLQPEDVATYYCQQGSSIPRFTSGGGTKVEIK
B2: Lc1/Hc1G (antibody, V domains shown)
VH: B1 VH with T63G
VL: B1 VL
B3: Lc1/Hc1S (VH of SEQ ID NO: 4 and VL of SEQ ID NO: 12) (antibody, V domains shown)
VH: B1 VH with N61S
VL: B1 VL with T20I
B4: Lc2/Hc1 (antibody, V domains shown)
VH: B1 VH
VL: B1 VL with T20I
B5: Lc1/Hc1A (antibody, V domains shown)
VH: B1 VH with T63A
VL: B1 VL
B6: Lc2/Hc1A (antibody, V domains shown)
VH: B1 VH with T63A
VL: B1 VL with T20I
B7: Lc1/Hc1S (antibody, V domains shown)
VH: B1 VH with N61S
VL: B1 VL
B8: ITGa3-VM2 (antibody, mouse IgG1, V domains shown)
VH: EVQLQESGAELVKPGTSVRLSCKASGYTFTEYIIHWVKQRSGQGLEWIGWFYPESGSVKYNETFKGRATLTADKSSSTVYMELSRLTSEDSAVYFCARHEERDYYGYYAMDYWGQGTSVTVSS
VL: DIVMTQTPTTLAASPGEKIIITCSASSSISSNYLHWYQQKPGFSPKLLIYRTSNLASGVPARFSGSGSGTSYSLTIGTMEAEDVATYYCQQGSSIPRFTSGSGTKLEIK

Positions count from the first letter of the chain named. Results are given in words; binding and its absence hold for the method and conditions named. Some binding calls cover weakened binding; strength is not graded here.

The first assay deals with T1, human ITGa3 protein (human). Nature of the assay: ELISA; human ITGa3 protein adsorbed to plate; anti-human FAB-peroxidase secondary.
Regarding B1, the binding entry was “binds”.

As to B2, the binding result is reported as “binds”.

Consider B3, for which the binding result is recorded as “binds”.

For the molecule B4, the binding entry is recorded as “binds”.

With B5, the binding entry is recorded as “binds”.

Turning to B6, the binding entry is “binds”.

With B7, the binding entry is listed as “binds”.

The target is the same in another assay. Nature of the assay: ELISA; human ITGa3 protein adsorbed to plate; anti-mouse FAB-peroxidase secondary. (In general: In an ELISA, binding on a coated surface is turned into a signal by an enzyme label.)
Consider B8, for which the binding result is “binds”.
